Experimental data taken from PubChem BioAssay AID504834 (National Center for Advancing Translational Sciences (NCATS), 2011).
Screen size: about 320,000 compounds; about 22,000 (6.9%) were called active. Inconclusive means that the source gave no clear call. Such entries were picked first, then a sample of the others. Calls follow the shape of the dose curve; as a rule, active = well fitted inhibition curve with a large enough effect; inconclusive = small, poorly fitted or top-dose-only effect, or another doubt; inactive = no such curve, though single readings can be large or run the other way. A potency beside an inconclusive call is a rough fit, not a confirmed value.

Assay: Primary qHTS for delayed death inhibitors of the malarial parasite plastid, 96 hour incubation
Details: P. falciparum luciferase reporter growth; series mostly up to 28.7 µM
Summary of the method: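 Infected RBCs, 2% Hct / 0.05% parasitemia final; luciferase-reporter P. falciparum; cpd 96 h, 37 C, 5% CO2; luciferase detection reagent; luminescence.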
Potency is read from the fitted curve at half-maximal effect.

Row | SMILES | Potency
1 | COc1ccc(OC)c(-n2c(C)cc(/C=C3\C(=N)N4N=C(CC(=O)N5CCOCC5)SC4=NC3=O)c2C)c1 | active: 11.7 µM
2 | O=C(CNc1cccc(S(=O)(=O)N2CCCCC2)c1)Nc1cccc(F)c1 | active: 2.33 µM
3 | COc1ccc(OCCN2CCOCC2)cc1 | inconclusive: 18.5 µM [inhibitor, single point]
4 | CC(C)(C)OC(=O)NCC(=O)Oc1cc2oc(=O)cc(-c3ccccc3)c2cc1Cl | inactive
5 | CC(=O)N1CCOc2ccc(S(=O)(=O)N3CC(C)CC(C)C3)cc21 (configuration not stated) | active: 9.28 µM
6 | CN(C(=O)Nc1ccc(Cl)cc1)n1cnc2ccccc2c1=O | inconclusive: 11.7 µM [inhibitor, single point]
7 | CSc1ccc(S(=O)(=O)N2CCC(C(=O)Nc3cccnc3)CC2)cc1 | inactive
8 | Cc1ccc(S(=O)(=O)Nc2csc(C)c2C(=O)O)cc1 | inactive
9 | COc1ccc2c(c1)c(CC(=O)Nc1ccccc1OC)c(C)n2C(=O)c1ccc(Cl)cc1 | active: 5.22 µM
10 | Cc1ccc(S(=O)(=O)N2CCCC2CNC(=O)C(=O)NCCN2CCOCC2)cc1 (configuration not stated) | inactive
11 | O=C(NCc1ccncc1)/C(=C\c1ccc(F)cc1)NC(=O)c1ccccc1 | inconclusive: 18.5 µM [inhibitor, single point]
12 | CCCc1cc(C(=O)Nc2ccc(C(=O)c3ccc(F)cc3)cc2)n(C)n1 | inconclusive: 10.4 µM [inhibitor, single point]
13 | Cc1ccc(NC2CCCN(C(=O)c3ccoc3)C2)cc1C (configuration not stated) | active: 10.4 µM
14 | CCOc1cccc(-c2cc(-c3n[nH]c(=S)n3CC)c3ccccc3n2)c1 | active: 11.7 µM
15 | O=C(COc1ccc(Cl)cc1Br)N1CCN(S(=O)(=O)c2ccccc2)CC1 | inconclusive: 18.5 µM [inhibitor, single point]
16 | COCc1ccc(-c2c(-c3ccccc3OC)sc3cc4c(cc23)OCO4)cc1 | inconclusive: 8.28 µM [inhibitor, single point]
17 | CC(C)c1ccc(NC(=O)C2CCCN(S(=O)(=O)c3cccnc3)C2)cc1 (configuration not stated) | inconclusive: 6.57 µM [inhibitor, partial curve]
18 | CCOn1c(=O)c(-c2cccc([N+](=O)[O-])c2)[n+]([O-])c2ccccc21 | inactive
19 | COc1ccc(Br)cc1CNc1ccc2[nH]c(=O)[nH]c2c1 | inconclusive: 10.4 µM [inhibitor, partial curve]
20 | Nc1ccc(Cl)c(NC(=O)c2cccs2)c1 | inconclusive: 11.7 µM [inhibitor, single point]
21 | NC(=O)CC(NC(=O)c1ccccc1)c1ccc(NCCOc2ccccc2)c([N+](=O)[O-])c1 (configuration not stated) | inconclusive: 11.7 µM [inhibitor, partial curve, poor fit]
22 | CCC(C)C(NC(=O)c1ccccc1NC(=O)c1ccco1)C(=O)NNC(=O)c1ccc(OC)cc1 (configuration not stated) | active: 8.28 µM
23 | O=C(NCCCn1ccnc1)C(=O)NCc1ccc(Cl)cc1 | inactive

Some of the entries above, set out differently.
Row,SMILES,Potency
1,COc1ccc(OC)c(-n2c(C)cc(/C=C3\C(=N)N4N=C(CC(=O)N5CCOCC5)SC4=NC3=O)c2C)c1,active: 11.7 µM
3,COc1ccc(OCCN2CCOCC2)cc1,"inconclusive: 18.5 µM [inhibitor, single point]"
4,CC(C)(C)OC(=O)NCC(=O)Oc1cc2oc(=O)cc(-c3ccccc3)c2cc1Cl,inactive
5,CC(=O)N1CCOc2ccc(S(=O)(=O)N3CC(C)CC(C)C3)cc21 (configuration not stated),active: 9.28 µM
6,CN(C(=O)Nc1ccc(Cl)cc1)n1cnc2ccccc2c1=O,"inconclusive: 11.7 µM [inhibitor, single point]"
8,Cc1ccc(S(=O)(=O)Nc2csc(C)c2C(=O)O)cc1,inactive
9,COc1ccc2c(c1)c(CC(=O)Nc1ccccc1OC)c(C)n2C(=O)c1ccc(Cl)cc1,active: 5.22 µM
11,O=C(NCc1ccncc1)/C(=C\c1ccc(F)cc1)NC(=O)c1ccccc1,"inconclusive: 18.5 µM [inhibitor, single point]"
12,CCCc1cc(C(=O)Nc2ccc(C(=O)c3ccc(F)cc3)cc2)n(C)n1,"inconclusive: 10.4 µM [inhibitor, single point]"
13,Cc1ccc(NC2CCCN(C(=O)c3ccoc3)C2)cc1C (configuration not stated),active: 10.4 µM
14,CCOc1cccc(-c2cc(-c3n[nH]c(=S)n3CC)c3ccccc3n2)c1,active: 11.7 µM
15,O=C(COc1ccc(Cl)cc1Br)N1CCN(S(=O)(=O)c2ccccc2)CC1,"inconclusive: 18.5 µM [inhibitor, single point]"
16,COCc1ccc(-c2c(-c3ccccc3OC)sc3cc4c(cc23)OCO4)cc1,"inconclusive: 8.28 µM [inhibitor, single point]"
17,CC(C)c1ccc(NC(=O)C2CCCN(S(=O)(=O)c3cccnc3)C2)cc1 (configuration not stated),"inconclusive: 6.57 µM [inhibitor, partial curve]"
20,Nc1ccc(Cl)c(NC(=O)c2cccs2)c1,"inconclusive: 11.7 µM [inhibitor, single point]"
22,CCC(C)C(NC(=O)c1ccccc1NC(=O)c1ccco1)C(=O)NNC(=O)c1ccc(OC)cc1 (configuration not stated),active: 8.28 µM
23,O=C(NCCCn1ccnc1)C(=O)NCc1ccc(Cl)cc1,inactive

Rewritten with tabs: entries from further up
Row	SMILES	Potency
10	Cc1ccc(S(=O)(=O)N2CCCC2CNC(=O)C(=O)NCCN2CCOCC2)cc1 (configuration not stated)	inactive
11	O=C(NCc1ccncc1)/C(=C\c1ccc(F)cc1)NC(=O)c1ccccc1	inconclusive: 18.5 µM [inhibitor, single point]

Additional structures

Row | SMILES | Potency
24 | COC(=O)c1cccc(C23CC4(C2)[C@H](CN(Cc2ccc(-c5ccccc5)cc2)[C@@H]4c2ccccc2)C3c2ccc(Cl)nc2)c1 (some centres not stated) | inconclusive: 18.5 µM [inhibitor, single point]
25 | CCOC(=O)C1CCN(C(=O)c2cccnc2Oc2ccc(Cl)cc2)CC1 | inactive
26 | CCc1nc2ccc(C(=O)NCCCN3CCN(c4ccccc4F)CC3)cc2nc1CC | inconclusive: 5.22 µM [inhibitor, partial curve, poor fit]
27 | CCOC(=O)c1c(N)sc(C(O)(C(F)(F)F)C(F)(F)F)c1-c1ccc(OC)cc1OC | inconclusive: 18.5 µM [inhibitor, single point]
28 | CC1CCN(c2ncccc2C(=O)O)CC1 | inconclusive: 3.29 µM [inhibitor, single point]
29 | CCOc1cc(C(=O)NCCc2ccc(S(N)(=O)=O)cc2)cc(OCC)c1OCC | inconclusive: 18.5 µM [inhibitor, single point]
30 | O=C1C=C(Nc2ccc(Cl)cc2Cl)CC(c2ccco2)C1 (configuration not stated) | inconclusive: 6.57 µM [inhibitor, partial curve, poor fit]
31 | COc1ccc(C2C(C(=O)Nc3cccc(C)n3)c3ccccc3C(=O)N2C)cc1OC (configuration not stated) | inconclusive: 10.4 µM [inhibitor, single point]
32 | CCOC(=O)Nc1cccc(OCC(=O)Nc2ccccc2OC)c1 | inconclusive: 14.7 µM [inhibitor, partial curve, poor fit]
33 | CCOc1ccc(N2C(=O)Nc3ccccc3C2(O)C(=O)N2CCN(c3ccccn3)CC2)cc1 (configuration not stated) | inactive
34 | COc1cccc(CSc2nnc(CSc3nc4nc(C)cc(C)n4n3)s2)c1 | inconclusive: 10.4 µM [inhibitor, single point]
35 | Cc1ccc(C)c(OCCC(=O)Nc2cccc(S(=O)(=O)N3CCCC3)c2)c1 | inconclusive: 9.28 µM [inhibitor, single point]
36 | CC(C)Nc1cc(C(C)(C)C)nc2c(-c3ccccc3)cnn12 | active: 13.1 µM
37 | Cn1c(CSc2ncccn2)nnc1SCC(=O)N1CCCCC1 | inconclusive: 2.94 µM [inhibitor, full curve, poor fit]
38 | Cc1ccc(-n2c(SCC(=O)Nc3cc(C)on3)nc3c(c2=O)SC(C)C3)cc1 (configuration not stated) | inconclusive: 0.657 µM [inhibitor, full curve]
39 | CCn1c(C)cc(/C=C2/SC(=S)N(CC(=O)O)C2=O)c1C | inactive
40 | CCOc1cc(NC(=S)NCCCN2CCOCC2)c(OCC)cc1NC(=O)c1cccs1 | inconclusive: 11.7 µM [inhibitor, partial curve]
41 | CNC(=O)Nc1cccc(NC(=O)NC)n1 | inconclusive: 18.5 µM [inhibitor, single point]
42 | COc1ccc(CN2CCNC(=O)C2CC(=O)NCc2cc(C)n(C)n2)c(F)c1 (configuration not stated) | inconclusive: 4.15 µM [inhibitor, single point]
43 | Cc1c(O)ccc2c(CC(=O)N[C@@H](Cc3ccccc3)C(=O)O)cc(=O)oc12 | inactive
44 | COc1ccc(/C=N/N2CCN(C)CC2)cc1OC | inactive
45 | Cc1ccccc1Cn1c(NC2CCCC2)nc2c1c(=O)[nH]c(=O)n2C | inconclusive: 5.86 µM [inhibitor, partial curve, poor fit]
46 | O=C(NC(=S)Nc1cccc2ncccc12)c1ccccc1 | inconclusive: 0.738 µM [inhibitor, full curve, poor fit]

Row | SMILES | Potency
47 | COc1ccc(N(CC(=O)Nc2ccc(OC)c(OC)c2)S(=O)(=O)c2ccccc2)cc1Cl | inconclusive: 5.22 µM [inhibitor, partial curve]
48 | OCC1(Cc2ccc(Cl)cc2)CCN(Cc2ccc3nsnc3c2)CC1 | inconclusive: 11.7 µM [inhibitor, partial curve]
49 | CC1CCCCN1CCNC(=O)C1CCCN(c2ncnc3c2nc2n3CCCCC2)C1 (configuration not stated) | inconclusive: 1.65 µM [inhibitor, partial curve]
50 | Cc1cc(C)c(OCC(=O)N(Cc2ccccc2)C2CCS(=O)(=O)C2)c(C)c1 (configuration not stated) | inconclusive: 10.4 µM [inhibitor, single point]
51 | COc1ccc(CC(=O)O/N=C(\N)Cc2cccc3ccccc23)cc1OC | inactive
52 | O=C(CSCc1ccc(Cl)cc1)Nc1nccs1 | inconclusive: 18.5 µM [inhibitor, single point]
53 | Cc1cc(S(=O)(=O)N2CCN=C2c2ccccc2)c(Cl)cc1Cl | inconclusive: 9.28 µM [inhibitor, partial curve]
54 | O=C(NC(=S)N1CCOCC1)C12CC3CCC(CC(C3)C1)C2 | inconclusive: 3.7 µM [inhibitor, partial curve, poor fit]
55 | O=C(Cc1ccccc1)N1CCN(CCCc2ccccc2)CC1 | inconclusive: 0.037 µM [inhibitor, full curve, poor fit]
56 | Cc1ccc(-n2ncc3c2ncn2nc(-c4ccco4)nc32)c(C)c1 | inactive
57 | Cc1ccc(N(CC(=O)NCc2ccc(F)cc2)S(=O)(=O)c2cccs2)cc1 | active: 4.65 µM
58 | Cc1ccc(S(=O)(=O)N2CCOCC2)cc1C(=O)OCC(=O)c1ccc[nH]1 | inconclusive: 8.28 µM [inhibitor, single point]
59 | N#CC(C(=O)NC1CCCCC1)c1nc2ccccc2nc1N1CCN(c2ccccc2F)CC1 (configuration not stated) | inconclusive: 13.1 µM [inhibitor, single point]
60 | COc1ccc(S(=O)(=O)N2CCCCCC2)cc1C(=O)Nc1ccccn1 | inconclusive: 8.28 µM [inhibitor, partial curve, poor fit]
61 | CCc1nnc(NC(=O)c2c(C)nn(-c3ccccc3)c2Cl)s1 | inconclusive: 0.0738 µM [inhibitor, full curve, poor fit]
62 | COc1ccc(C2C3=C(CCCC3=O)NC3=C2C(=O)c2ccccc23)cc1 (configuration not stated) | inconclusive: 9.28 µM [inhibitor, single point]
63 | COc1ccc2[nH]c3c(c2c1)CCN1C(=O)N([C@@H](C)C(=O)NC2CCCCC2C)C(=O)[C@]31C (some centres not stated) | active: 11.7 µM
64 | Cc1ccc(CCNC(=O)CN2CCN(Cc3ccccc3F)C2=O)cc1 | inconclusive: 11.7 µM [inhibitor, single point]
65 | Cc1ccc(S(=O)(=O)N2CCC3(CC2)OCCO3)s1 | inconclusive: 10.4 µM [inhibitor, single point]
66 | COc1ccc(C(=O)Oc2ccc(-c3nnco3)cc2)cc1S(=O)(=O)N1CCOCC1 | inactive
67 | Clc1ccc(-c2noc(CN(Cc3ccccn3)CC3CCCO3)n2)cc1 (configuration not stated) | inconclusive: 11.7 µM [inhibitor, partial curve, poor fit]
